These results are taken from patent publication US20260092057A1, “BCL-XL/BCL-2 DEGRADERS AND USES THEREOF” (Kymera Therapeutics, Inc., priority 2022, published 2026).

Amino acid sequences for entries named in this document (tags omitted).
UniProt Q07817, whole entry: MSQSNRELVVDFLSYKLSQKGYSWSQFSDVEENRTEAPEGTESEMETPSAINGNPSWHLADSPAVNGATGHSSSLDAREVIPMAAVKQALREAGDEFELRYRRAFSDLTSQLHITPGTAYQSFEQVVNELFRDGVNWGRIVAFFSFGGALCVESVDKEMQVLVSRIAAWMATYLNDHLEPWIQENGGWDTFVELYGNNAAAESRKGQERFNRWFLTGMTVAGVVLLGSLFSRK

For assay [1], the target named is BCL-XL (Homo sapiens, UniProt Q07817). The assay can be described thus: BCL-XL degradation assay in MOLT-4 cells (ELISA, 6 h). On the technique in general: ELISA stands for enzyme-linked immunosorbent assay.
Assay [2] relates to MOLT-4 cells. The assay can be described thus: CTG (CellTiter-Glo) cell viability assay, MOLT-4. The conditions noted are these: read-out: CTG Cell Viability Assay - MOLT-4 3 day: Average external-IC50. The protocol: (§1) Compound-mediated viability effect on MOLT-4 and Caki-2 was quantitatively determined using the CellTiter-Glo® Luminescent Cell Viability Assay kit from Promega (Catalog number G7570) following manufacturer's recommended procedures. Briefly, MOLT-4 and Caki-2 cells were seeded into 384 well plates (Grenier Bio-One, Catalog number 781080) with a density of 10,000 cells per well. Compounds were then added to the assay plate with final top concentration of 10 µM and 1:3 dilution series with total of 9 doses. The final DMSO concentration is normalized to 0.2%. The assay plates were incubated at 37° C. for 3 days under 5% CO2. Then the assay plate was equilibrated at room temperature for 10 minutes. To determine cell viability, 30 uL CellTiter Glo reagent was added to each well and the assay plate was centrifuged at 1000 rpm for 30 second, incubated at room temperature for 10 min, and analyzed by detecting the luminescence using a multimode plate reader (EnVision 2105, PerkinElmer). The data was then analyzed by software Prism 7.0 from GraphPad and the dose response curves are fit using a three-parameter logistic equation to calculate IC50.
(§2) The letter codes for MOLT-4 IC50 include: A (<0.1 μM); B (0.1-1.0 μM); C (>1.0-3.0 μM); and D (>3.0 μM). The letter codes for Caki-2 IC50 include: A (<5 μM); B (5-10 μM); C (>10-30.0 μM); and D (>30.0 μM).

For assay [3], the system named is Caki-2 cells. The assay can be described thus: CTG (CellTiter-Glo) cell viability assay, Caki-2. Conditions: read-out: CTG Chempartner/PHA- Caki-2 3-day: Average external-IC50. The protocol:
as §1, §2
A general note: ATP-based viability assays read luminescence as a measure of living cells.

The structures appear in SMILES notation. pIC50: −log10 of the molar value. The match of structure and compound is tentative.

The DC50 is the midpoint of the concentration-degradation curve. On to `Cc1ncsc1-c1ccc([C@H](C)NC(=O)[C@@H]2C[C@@H](O)CN2C(=O)[C@@H](NC(=O)CNCCCNc2ccc(S(=O)(=O)NC(=O)c3ccc(N4CCN(CC5=C(c6ccc(Cl)cc6)CC(C)(C)CC5)CC4)cc3Oc3cnc4[nH]ccc4c3)cc2S(=O)(=O)C(F)(F)F)C(C)(C)C)cc1` [I-115], for which the “Bcl-xL ELISA in MOLT-4 degradation 6 h: Dmax %” value in assay [1] is on record as “A (A (>75%))”. In addition, the DC50 in assay [1] (read-out: Bcl-xL ELISA in MOLT-4 degradation 6 h: External Abs-DC50) fell in the range of 10 to 100 nM. Also, the pIC50 in assay [2] was 6.00 to 7.00; in assay [3] it was less than 4.52.
